{"source": "patent US20170363632A1", "about": "“Biomarker Kit for Metastatic Breast Cancer Prognosis and Uses Thereof” (University of Maryland, Baltimore, priority 2016, published 2017)", "format_in_all_cases": "cell-based", "key": {"[1]": {"tested_on": "MCF10A obscurin-knockdown cells", "experiment": "Bright-field microscopy of cell morphology and cell-cell junctions", "conditions": "25 mM LY294002", "from_the_text": "Taken together, these findings indicate that blockade of the PI3K pathway in obscurin-depleted breast epithelial cells via pharmacological treatment or molecular means effectively reverses epithelial to mesenchymal transition."}, "[2]": {"tested_on": "obscurin-knockdown MCF10A cells", "experiment": "Mammosphere culture in ultra-low attachment conditions", "conditions": "25 mM LY294002, 10 days", "experimental": "Single MCF10A cells stably transduced with obscurin shRNA were plated in ultralow attachment plates (Corning, Lowell, Mass., USA) at a density of 10,000 cells/mL in 2 mL serum-free growth media (DMEM/F12 with GlutaMAX™), supplemented with insulin (10 μg/mL), hydrocortisone (0.5 μg/mL), cholera toxin (100 ng/mL), epidermal growth factor (20 ng/mL), 1% penicillin-streptomycin and puromycin (1.5 μg/mL). Twenty-four hours following initial plating, cell cultures were supplemented with 2 mL serum-free growth media that contained the indicated concentration of LY294002, BKM120, or DMSO vehicle control every day for 10 days at which time point spheres were measured and those ≧100 μm were counted as tumor spheres."}, "[3]": {"tested_on": "obscurin-knockdown MCF10A cells", "experiment": "Microchannel single cell migration", "conditions": "25 mM LY294002", "experimental": "The microchannel device was fabricated by standard lithography and coated with 20 μg/mL collagen type I (BD Biosciences, San Jose, Calif.) (12-16). Cells were trypsinized, resuspended in serum-containing media to neutralize the trypsin, and subsequently washed in serum-free media. A suspension of 5×10^4 cells was added to the inlet port, and cells were transported along the seeding channel by pressure-driven flow. Within 5 min, the cell suspension was removed and replaced with 100 μL of serum-free media containing the specified concentrations of LY294002, BKM120, or DMSO vehicle control. Serum-containing media with the indicated concentrations of LY294002, BKM120, or DMSO was added to the top-most inlet port, thus forming a chemoattractant gradient. Chambers were placed in an enclosed, humidified microscope stage at 5% CO2 and 37° C. (TIZ, Tokai Hit Co., Japan or Okolab, Italy). […] Instantaneous cell velocity was calculated by dividing each interval displacement by the time interval (20 min), and the mean velocity for a given cell was computed by averaging instantaneous velocities for all time intervals. Chemotactic index was calculated by dividing the end-to-end displacement by the total path length of the cell. […]"}}, "note": "At least one compound was matched to its structure with a doubt left.", "data": [{"smiles": "O=c1cc(N2CCOCC2)oc2c(-c3ccccc3)cccc12", "note": "[LY294002]", "values": [{"measurement": "cell morphology and cell-cell junction formation", "setting": "[1]", "result": "(re)acquired an epithelial appearance and were able to form cell-cell junctions"}, {"measurement": "mammosphere formation", "setting": "[2]", "result": "nearly abolished mammosphere formation"}, {"measurement": "migration speed compared to DMSO treated cells", "setting": "[3]; microchannels 6, 10, 20 and 50 mm wide", "result": "significantly reduced migration"}, {"measurement": "chemotactic index (CI) relative to vehicle control", "setting": "[3]; statistically significant in narrow channels (6 mm)", "result": "lower chemotactic index"}]}]}
